Screen size: about 360,000 compounds; about 7,500 (2.1%) were called active. Inconclusive means that the source gave no clear call. Such entries were picked first, then a sample of the others. The call rests on the fitted dose curve; in most records, active means well fitted inhibition curve with a large enough effect; inconclusive means small, poorly fitted or top-dose-only effect, or effect the other way; inactive means flat fitted curve, though single readings scatter. Potencies beside an inconclusive call are fits to weak or partial responses and may not hold up.
Assay: Nrf2 qHTS screen for inhibitors; further: nearly all actives have a fitted effect of over 60% in size
Conditions: A549 ARE-Fluc reporter, luciferase luminescence, 18-24 h; activity change, negative = inhibition: at 46 µM (top of the series)
Method in brief: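 Two sequential reads on A549 ARE_Fluc cells exposed to compound for 18-24 h: a CellTiter-Fluor fluorescence read for viability, then a luciferase luminescence read for Nrf2/ARE activity.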
On the % scale 0 is the no-effect control and ±100 the full control effect; potency means the concentration at half of the fitted maximal effect.

| Compound | Potency | activity change, negative = inhibition |
| --- | --- | --- |
| O=C(C1CCCN(S(=O)(=O)Cc2ccccc2)C1)N1CCc2ccccc21 (stereo not drawn) | inactive |  |
| COc1ccc(-c2cn3c4c(sc3n2)CCCC4)cc1 | inconclusive: 4.11 µM [falling, partial curve, poor fit] |  |
| COc1ccc(C/C(N)=N/OC(=O)Cc2ccc(OC)c(OC)c2)cc1 | inconclusive: 29.1 µM [falling, single point] |  |
| CCOc1ccc(CNC(=O)c2cc3ccccn3n2)cc1OC | inconclusive: 29.1 µM [activator, single point] |  |
| Cc1cc(C(=O)OCC(=O)N(CC(C)C)c2c(N)n(Cc3ccccc3)c(=O)[nH]c2=O)c(C)o1 | inconclusive: 20.6 µM [falling, partial curve, poor fit] |  |
| CCOc1ccc(CC(=O)C2C(=O)CC(C)(C)CC2=O)cc1OCC | inactive |  |
| CC(=O)N(C)c1ccc(OCC(O)Cn2c3ccc(Cl)cc3c3cc(Cl)ccc32)cc1 (stereo not drawn) | active: 20.6 µM |  |
| Cn1c(=O)c2c(-c3cccc(Br)c3)n(CCO)cc2n(C)c1=O | inconclusive: 29.1 µM [activator, single point] |  |
| Cc1n[nH]c(C)c1CCOc1ccc(C(C)C)cc1 | inconclusive: 29.1 µM [falling, single point] |  |
| COc1ccc(-n2nnc3c(SCC(=O)NCc4ccco4)ncnc32)cc1 | inconclusive: 0.103 µM [activator, full curve, poor fit] |  |
| Cc1csc(NC(=O)Cc2ccccc2Cl)n1 | inconclusive: 10.3 µM [activator, partial curve] |  |
| CC(C)(C)n1nnnc1C(c1ccc(C(F)(F)F)cc1)N(Cc1ccc(F)cc1)Cc1ccco1 (stereo not drawn) | inconclusive: 18.4 µM [falling, single point] |  |
| CCOC(=O)C1=C(C)N=c2s/c(=C/c3cccc([N+](=O)[O-])c3O)c(=O)n2C1c1ccc(OC)cc1OC (stereo not drawn) | inconclusive: 25.9 µM [falling, partial curve, poor fit] |  |
| COc1cc(NC(=S)NC2CC(C)(C)NC(C)(C)C2)cc(OC)c1 | inconclusive: 3.66 µM [activator, full curve, poor fit] |  |
| CC(OC(=O)c1n[nH]c2ccccc12)C(=O)Nc1ccccc1[N+](=O)[O-] (stereo not drawn) | inconclusive: 25.9 µM [falling, partial curve, poor fit] |  |
| O=C(Nc1ccc(S(=O)(=O)N2CCCC2)cc1)c1cccc(OC(F)F)c1 | inconclusive: 20.6 µM [falling, partial curve, poor fit] |  |
| COc1ccccc1Nc1nnc(SCC2CCCCO2)s1 (stereo not drawn) | inconclusive: 1.03 µM [activator, full curve, poor fit] |  |
| CCOC(=O)c1oc2nc(C)c3c(c2c1N)CC(C)(C)OC3 | inactive |  |
| Cc1cc(OCC(=O)N2CCOCC2)ccc1[N+](=O)[O-] | inconclusive: 4.61 µM [activator, full curve] |  |
| COCCN(CC(=O)Nc1cccc(C)c1C)C(=O)c1cc(-c2cccs2)nn1-c1ccccc1 | inconclusive: 29.1 µM [falling, single point] |  |
| CCc1c(C)sc(NC(=O)C2CC2c2ccccc2)c1C(N)=O (stereo not drawn) | inconclusive: 29.1 µM [activator, single point] |  |

Two neighbouring records out of the list so far, for reference:

| Compound | Potency | activity change, negative = inhibition |
| --- | --- | --- |
| CC(C)(C)n1nnnc1C(c1ccc(C(F)(F)F)cc1)N(Cc1ccc(F)cc1)Cc1ccco1 (stereo not drawn) | inconclusive: 18.4 µM [falling, single point] |  |
| CCOC(=O)C1=C(C)N=c2s/c(=C/c3cccc([N+](=O)[O-])c3O)c(=O)n2C1c1ccc(OC)cc1OC (stereo not drawn) | inconclusive: 25.9 µM [falling, partial curve, poor fit] |  |

The list continues:

| Compound | Potency | activity change, negative = inhibition |
| --- | --- | --- |
| Cc1ccc(S(=O)(=O)N2CCOCC2)cc1C(=O)OCC(=O)c1ccc(Br)cc1 | inconclusive: 29.1 µM [falling, single point] |  |
| CC(/C=N/NC(=O)c1nnn(-c2nonc2N)c1CN1CCCCC1)=C\c1ccccc1 | active: 5.17 µM |  |
| O=C(NCC1CCCO1)C(c1ccc(F)cc1)N(CC1CCCO1)C(=O)c1ccc(-c2ccccc2)[nH]1 (stereo not drawn) | inactive |  |
| CCc1nccn1CCC(=O)N1CCCC(N2CCN(c3cccc(Cl)c3)CC2)C1 (stereo not drawn) | inconclusive: 9.2 µM [activator, partial curve, poor fit] |  |
| C=CCn1c(SCC(=O)c2cccs2)nc2sc(C)c(C)c2c1=O | inconclusive: 14.6 µM [activator, partial curve] |  |
| Cc1ccc(NC(=O)c2oc3ccccc3c2NC(=O)c2ccccc2C)cc1 | inconclusive: 0.92 µM [falling, partial curve, poor fit] |  |
| CCOC(=O)c1c(-c2ccccc2)oc2ccc(NS(=O)(=O)c3ccc(C)cc3C)cc12 | inconclusive: 29.1 µM [falling, single point] |  |
| Cc1cc(C(=O)Nc2cccc(C)c2C)c2ccccc2n1 | inconclusive: 13 µM [falling, partial curve, poor fit] |  |
| COc1cccc2c(=O)cc(C)n(CC(=O)Nc3cccc(C)c3)c12 | inconclusive: 18.4 µM [falling, partial curve, poor fit] |  |
| CC=C1COC(C(=O)NCCOCCO)(C(F)(F)F)C=C1C=C(C)C (stereo not drawn) | inconclusive: 23.1 µM [falling, single point] |  |
| COc1ccc(Nc2nc(N)c(C(=O)c3ccc(F)cc3)s2)cc1 | inactive |  |
| Cc1ccc(NC(=O)CNC(=O)c2ccc(C(C)(C)C)cc2)cc1S(=O)(=O)N1CCOCC1 | inconclusive: 1.3 µM [activator, full curve] |  |
| O=C(O)Cc1ccc(NC(=S)Nc2cccc(Cl)c2Cl)cc1 | inconclusive: 29.1 µM [activator, single point] |  |
| Cc1ccc(-n2c(=O)c3ccc(C(=O)NCc4ccccc4Cl)cc3n(Cc3ccccc3F)c2=O)cc1 | inconclusive: 0.092 µM [activator, full curve, poor fit] |  |
| CCOC(=O)C1(Cc2ccccc2C(F)(F)F)CCN(C(C)CCn2cccn2)CC1 (stereo not drawn) | inconclusive: 11.6 µM [falling, partial curve, poor fit] |  |
| COc1cccc(NS(=O)(=O)c2ccc3[nH]cc(C(=O)N4CCCCCC4)c(=O)c3c2)c1 | inconclusive: 2.06 µM [activator, full curve, poor fit] |  |
| O=C(Nc1ccccc1C(=O)N1CCCC1)c1ncoc1-c1cccc(Cl)c1 | inconclusive: 16.4 µM [activator, partial curve] |  |
| CCN(CC)CCNC(=O)c1ccc(NC(=O)c2ccc3c(c2)CCC3)cc1 | inactive |  |
| C/C(=N\NC(=O)c1cccc(F)c1)c1ccc(NC(=O)Cc2ccccc2)cc1 | inconclusive: 6.51 µM [activator, partial curve] |  |
| CC(=O)c1cc(CN2CCC(C(=O)Nc3cccc(-c4cscn4)c3)CC2)cs1 | inconclusive: 10.3 µM [falling, partial curve, poor fit] |  |
| COc1cccc(C2c3[nH]c4ccccc4c3CCN2Cc2cnc(C)s2)c1OC (stereo not drawn) | inconclusive: 11.6 µM [falling, partial curve, poor fit] |  |

| Compound | Potency | activity change, negative = inhibition |
| --- | --- | --- |
| N#Cc1cn(CC(=O)NCCc2c[nH]c3ccccc23)c2ccccc12 | inconclusive: 5.8 µM [falling, single point] |  |
| O=S1(=O)N=C(N2CCCC2)c2ccccc21 | inconclusive: 5.17 µM [falling, single point] |  |
| S=C(Nc1ccccc1Cl)N1CCN(c2ccccn2)CC1 | inconclusive: 32.6 µM [falling, partial curve, poor fit] |  |
| CC(C)(C)n1ncc2c(=O)n(Cc3ccc(Cl)cc3Cl)cnc21 | inconclusive: 25.9 µM [falling, single point] |  |
| Fc1cccc(Cl)c1-c1nnc2ccc3ccccc3n12 | inconclusive: 10.3 µM [falling, partial curve, poor fit] |  |
| CCOC(=O)N1CCC(N2C(=O)c3ccccc3C2Nc2cc(Cl)c(OC)cc2OC)CC1 (stereo not drawn) | inconclusive: 29.1 µM [falling, single point] |  |
| COc1cccc(CN2C(=O)C(C)N(C(=O)c3c(F)cccc3F)c3ccccc32)c1 (stereo not drawn) | active: 20.6 µM |  |
| S=c1nc(NCCc2ccccc2Cl)c2ccccc2[nH]1 | inconclusive: 1.64 µM [activator, full curve, poor fit] |  |
| O=C(O)COc1ccccc1C1C2C(=O)N(c3ccccc3)C(=O)C2ON1c1ccccc1 (stereo not drawn) |  | inconclusive: 33.6% [activator] |
| Cc1n[nH]c(=S)n1-c1ccccc1 | inconclusive: 0.82 µM [activator, full curve, poor fit] |  |
| O=C(CCl)c1cc2c3c(c1)CC(=O)N3CCC2 | inconclusive: 16.4 µM [falling, partial curve] |  |
| CCN(c1cccc2ccccc12)S(=O)(=O)c1cccs1 | inactive |  |
| NC(=O)c1ccc(C(F)(F)F)n(Cc2ccc(Cl)cc2)c1=O | inconclusive: 9.2 µM [falling, partial curve] |  |
| O=C(O)CCCCCN1C(=O)/C(=C\c2ccncc2)SC1=S | inconclusive: 20.6 µM [activator, single point] |  |
| O=C(Nc1ccc(NC(=O)C2CCCCC2)cn1)c1ccco1 | inconclusive: 29.1 µM [falling, single point] |  |
| O=c1ccncn1C1OC(CO)C(O)C1O (stereo not drawn) | inactive |  |
| Cc1nn(-c2ccccc2)c(C)c1C(=O)OCC(=O)Nc1ccccc1F | inconclusive: 2.31 µM [activator, full curve] |  |
| COCCCNC(=O)c1ccccc1N(Cc1ccccc1)S(=O)(=O)c1ccc(OC)cc1 | inconclusive: 1.84 µM [falling, partial curve, poor fit] |  |
| COc1ccc(-c2cc(C(=O)NC3CCCC3)no2)cc1 | inconclusive: 6.51 µM [activator, full curve] |  |
| CCOC(=O)c1sc2nc(CSc3ccccc3)nc(N3CCC(C(N)=O)CC3)c2c1C | active: 20.6 µM |  |
| COc1ccc(NC(=O)CN2CCN(S(=O)(=O)c3cccs3)CC2)cc1Cl | inconclusive: 20.6 µM [falling, partial curve, poor fit] |  |

Quoted at random: 2 records from the list, in no set order.

| Compound | Potency | activity change, negative = inhibition |
| --- | --- | --- |
| CC(C)(C)n1nnnc1C(c1ccc(C(F)(F)F)cc1)N(Cc1ccc(F)cc1)Cc1ccco1 (stereo not drawn) | inconclusive: 18.4 µM [falling, single point] |  |
| O=C(CCl)c1cc2c3c(c1)CC(=O)N3CCC2 | inconclusive: 16.4 µM [falling, partial curve] |  |

From PubChem BioAssay AID504444 (National Center for Advancing Translational Sciences (NCATS), 2011)
